Where two headings read alike, the source gives them in different places.
Tests used:
[1] = Sensory analysis of odor/smell, color and taste of Maillard reaction samples at 22° C. (Examples 55-62); type: in vivo, human
[2] = Sensory evaluation of the samples prepared in Example 50 (Example 52); type: in vivo, human; set-up: key to Intensity of Smell: “+” for slight; “++” for moderate; “+++” for very strong
[3] = cited from earlier work
[4] = HPLC/DAD/MS detection of MRI (Amadori) products; settings: LC/MS
[5] = negative controls (no carbohydrate source), 10 ml glycerin/water=9:1, 100° C. for 40 minutes
[6] = Table 52.2, 1 ml water + 9 ml Glycerin, 0.67 h, 100° C.
[7] = Table 52.2, reaction per Table 50.2: 1 ml water + 9 ml Glycerin, 0.67 h, 100° C.
[8] = volatile substances found by GC/MS in RCSE-MRP-CI
[9] = Table 52.1, 1 ml water + 9 ml Glycerin, 1 h, 100° C.
[10] = Table 52.1, reaction per Table 50.1: 1 ml water + 9 ml Glycerin, 1 h, 100° C.
[11] = Table 52.7, Glycerin 10 ml, 1 h, 120° C.
[12] = Table 52.7, reaction per Table 50.7: Glycerin 10 ml, 1 h, 120° C.
[13] = after reaction, 10 ml KH2PO4, pH 7.8, 2.5 h, 120° C. (Example 57)
[14] = before reaction, 10 ml KH2PO4, pH 7.8 (Example 57)
[15] = Table 52.5, 1 ml water + 9 ml Glycerin, 2.0 h, 120° C.
[16] = Table 52.5, reaction per Table 50.5: 1 ml water + 9 ml Glycerin, 2.0 h, 120° C.

Compound: N[C@@H](Cc1ccc(O)cc1)C(=O)O [18.1 mg Tyr]
- Color [1, 5]: No color
- Smell [1, 5]: neutral
- Taste [1, 5]: Slightly sweet

Compound: C=C1C[C@@]23CC[C@H]4[C@@](C)(CCC[C@@]4(C)C(=O)O[C@@H]4O[C@H](CO)[C@@H](O)[C@H](O)[C@H]4O)[C@@H]2CC[C@]1(O[C@@H]1O[C@H](CO)[C@@H](O)[C@H](O[C@@H]2O[C@H](CO)[C@@H](O)[C@H](O)[C@H]2O)[C@H]1O[C@@H]1O[C@H](CO)[C@@H](O)[C@H](O)[C@H]1O)C3 [0.05 mMol Reb-A]
- Color [2, 6]: Slightly Yellow
- Smell [2, 7]: neutral/unpleasant

Compound: C=C(C)[C@H]1CC=C(C)CC1 [Limonene]
- Main Flavor [3, 8]: citrus

Compound: CC1=CC[C@@H](C(C)(C)O)CC1 [à-Terpineol]
- Main Flavor [3, 8]: Flower

Compound: C[C@H](N)C(=O)O [0.1 mMol Ala]
- Color [2, 6]: No Color
- Smell [2, 7]: Agar

Compound: NCCCC[C@H](N)C(=O)O [14.7 mg Lys]
- Color [1, 5]: brown
- Smell [1, 5]: Popcorn
- Taste [1, 5]: Slightly sweet

Compound: OCCc1ccccc1 [Phenylethyl Alcohol]
- Main Flavor ([3]; volatile substances found by GC/MS in CSE / RCSE): Flower

Compound: N[C@@H](Cc1c[nH]c2ccccc12)C(=O)O [20.42 mg Try]
- Color [1, 5]: Slightly Yellow
- Smell [1, 5]: Unpleasant (fecal)
- Taste [1, 5]: Slightly sweet

Compound: N[C@@H](Cc1ccccc1)C(=O)O [Phe 60 mMol]
- Color [2, 9]: Slightly Yellow
- Taste [2, 9]: Sweet
- Smell [2, 10]: flowery/bloomy-caramel

Compound: N[C@@H](Cc1ccccc1)C(=O)O [3.3 mMol Phe]
- Color ([2]; Table 52.6, Glycerin 10 ml, 100° C., 5 min): No color
- Color ([2]; Table 52.6, Glycerin 10 ml, 100° C., 10 min): No color
- Color ([2]; Table 52.6, Glycerin 10 ml, 100° C., 20 min): Slightly Yellow
- Smell ([2]; Table 52.6, reaction per Table 50.6: Glycerin 10 ml, 100° C., 5 min): Slightly bloomy
- Color [2, 11]: Brown
- Smell [2, 12]: flowery/bloomy

Compound: CC1(C)[C@@H]2CC[C@H](CO)[C@H]1C2 [(−)-cis-Myrtanol]
- Main Flavor [3, 8]: Flower

Compound: CC[C@H](C)[C@H](N)C(=O)O [13.11 mg Ile]
- Color [1, 5]: No color
- Smell [1, 5]: Coffee
- Taste [1, 5]: Slightly sweet

Compound: C=CC1(C)CCC(C(C)(C)O)O1 (stereo not drawn) [trans-Linalool oxide]
- Main Flavor [3, 8]: Wood

Compound: N[C@@H](CS)C(=O)O [12.1 mg Cys]
- Color [1, 5]: Slightly Yellow
- Smell [1, 5]: Unpleasant (sulfur)
- Taste [1, 5]: Slightly sweet

Compound: O=C1O[C@@H]2[C@@H](O)[C@H](O)O[C@@H]2C1O (stereo partly shown) [Glucuronolactone]
- Color [1, 13]: Deep Yellow
- Smell [1, 13]: Burnt sugar
- Taste [1, 13]: Bitter

Compound: N[C@H](Cc1ccccc1)C(=O)O [Phe]
- Color [1, 13]: Slightly Yellow
- Smell [1, 13]: Caramel, burnt
- Taste [1, 13]: sweet

Compound: OC[C@H]1OC(O)[C@H](O)[C@@H](O)[C@@H]1O (stereo partly shown) [9 mg Glucose]
- Color [1, 14]: No color
- Smell [1, 14]: neutral
- Taste [1, 14]: Sweet

Compound: O=C(O)[C@@H]1CCCN1 [11.5 mg Pro]
- Color [1, 5]: Slightly Yellow
- Taste [1, 5]: Slightly sweet

Compound: C[C@@H](O)[C@H](N)C(=O)O [11.91 mg Thr]
- Smell [1, 5]: Vanilla, butter
- Taste [1, 5]: Slightly sweet

Compound: N[C@@H](CO)C(=O)O [10.5 mg Ser]
- Color [1, 5]: Slightly Yellow
- Smell [1, 5]: Lotus flower
- Taste [1, 5]: Slightly sweet

Compound: N[C@@H](Cc1ccccc1)C(=O)O [0.1 mMol Phe]
- Color [2, 6]: Slightly Yellow
- Color [2, 15]: Slightly Yellow
- Taste [2, 15]: sweet
- Smell [2, 16]: Caramel, burnt

Compound: C[C@H](N)C(=O)O [8.91 mg Ala]
- Color [1, 5]: No color
- Smell [1, 5]: Neutral, slightly Agar
- Taste [1, 5]: Slightly sweet

Compound: CSCC[C@H](N)C(=O)O [14.9 mg Met]
- Smell [1, 5]: Sulfuric
- Taste [1, 5]: Slightly sweet

Compound: N[C@@H](CCC(=O)O)C(=O)O [167 mMol Glu]
- Color [2, 9]: Slightly Yellow
- Taste [2, 9]: Sweet
- Smell [2, 10]: caramel

Compound: OC[C@H]1OC(O)[C@H](O)[C@@H](O)[C@@H]1O (stereo partly shown) [10 mMol Glu]
- Color ([2]; Table 52.6, Glycerin 10 ml, 100° C., 40 min): Slightly Yellow
- Color [2, 11]: No color
- Smell [2, 12]: Slightly Caramel

Compound: Phe + Glu
- MRI (Amadori) products detected during the experiments: Detected in Experiments [4]: Yes

Compound: Asp + Glu
- MRI (Amadori) products detected during the experiments: Detected in Experiments [4]: Yes

Compound: NCCCC[C@H](N)C(=O)O [0.1 mMol Lys]
- Color ([2]; Table 52.3, 1 ml water + 9 ml Glycerin, 0.67 h, 100° C.): Brown
- Smell ([2]; Table 52.3, reaction per Table 50.3: 1 ml water + 9 ml Glycerin, 0.67 h, 100° C.): Popcorn

Compound: O=C[C@H](O)[C@H]1OC(=O)[C@@H](O)[C@H]1O [0.1 mMol GlucLac]
- Color [2, 15]: Almost black
- Intensity of Smell [2, 15]: +++
- Taste [2, 15]: Bitter
- Smell [2, 16]: Burnt sugar

Compound: O=C[C@H](O)[C@@H](O)[C@H](O)[C@H](O)C(=O)O [Glucuronic Acid]
- Color [1, 13]: Deep Yellow

Compound: N[C@@H](Cc1ccccc1)C(=O)O [16.5 mg Phe]
- Color ([1]; after reaction, 10 ml KH2PO4, pH 7.8, 2.5 h, 120° C. (Example 58)): Slightly Yellow
- Taste ([1]; after reaction, 10 ml KH2PO4, pH 7.8, 2.5 h, 120° C., after dilution 1:20 (Example 58)): Sweet
- Color [1, 14]: No color
- Color ([1]; before reaction, 10 ml KH2PO4, pH 7.8 (Example 58)): No color
- Smell [1, 5]: Bloomy, caramel
- Taste [1, 5]: Slightly sweet

Source: US11369127B2, “Sweetener and flavor compositions, methods of making and methods of use thereof” (EPC Natural Products Co., Ltd., priority 2018, dated 2022)
